Results on one compound are retold here after US20150150787A1, “COMPOSITIONS, METHODS & SYSTEMS FOR RESPIRATORY DELIVERY OF THREE OR MORE ACTIVE AGENTS” (Pearl Therapeutics, Inc., priority 2013, published 2015).

A short description of the data set: Aerosol performance by Next Generation Impactor, BD/GP/FF cosuspension MDIs (Example 2). The class given is physicochemical. As to conditions: NGI 30 LPM, versus mono/dual cosuspensions or other strengths. How it is done:
For MDI manufacturing, a drug addition vessel (DAV) was prepared for suspension filling in the following manner. All powders were weighed into a drug addition vessel (DAV) within a nitrogen purged glove box that is controlled to <5% RH, by first adding half of the SP quantity, next filling the microcrystalline active agent material(s), and lastly adding the remaining half of the SP to the top. The DAV was sealed, removed from the glove box, and connected to the suspension vessel. The powders were rinsed into the vessel with HFA. The suspension was stirred and recirculated for no less than 60 minutes before MDI filling commenced. Product was formulated to a target fill weight of 10.8±0.5 g/canister. The temperature inside the suspension vessel was maintained at 15-17° C. throughout batch production. After recirculation for 30 min the cosuspension compositions were filled into 14 mL fluorinated ethylene polymer (FEP) coated aluminum canisters (Presspart, Blackburn, UK) through commercially available metering valves (Bespak, King's Lynn, UK). Sample canisters were then selected from each batch fill for total canister analysis to ensure that formulation targets were met.
The aerosol performance of each of the triple cosuspension compositions was evaluated and compared to the aerosol performance provided by the GFF, BFF, and BD Mono cosuspensions. […]

SMILES strings stand for the structures.

For `C[N+]1(C)CCC(OC(=O)C(O)(c2ccccc2)C2CCCC2)C1` (stereo not shown) [GP, (3-[(cyclopentylhydroxyphenylacetyl)oxy]-1,1-dimethyl-, bromide)], the “Coformulation effect (aerosol performance) when formulated in the triple cosuspensions” value is “no coformulation effect was observed”.
